Results taken from the supplement of paper PMC10849652.
This is one part of the list.

By UniProt entry, the sequences of proteins in these tests, tags left out. Where a name states a change or a piece, a line headed by the entry shows the natural chain unless it says otherwise.
UniProt Q10469: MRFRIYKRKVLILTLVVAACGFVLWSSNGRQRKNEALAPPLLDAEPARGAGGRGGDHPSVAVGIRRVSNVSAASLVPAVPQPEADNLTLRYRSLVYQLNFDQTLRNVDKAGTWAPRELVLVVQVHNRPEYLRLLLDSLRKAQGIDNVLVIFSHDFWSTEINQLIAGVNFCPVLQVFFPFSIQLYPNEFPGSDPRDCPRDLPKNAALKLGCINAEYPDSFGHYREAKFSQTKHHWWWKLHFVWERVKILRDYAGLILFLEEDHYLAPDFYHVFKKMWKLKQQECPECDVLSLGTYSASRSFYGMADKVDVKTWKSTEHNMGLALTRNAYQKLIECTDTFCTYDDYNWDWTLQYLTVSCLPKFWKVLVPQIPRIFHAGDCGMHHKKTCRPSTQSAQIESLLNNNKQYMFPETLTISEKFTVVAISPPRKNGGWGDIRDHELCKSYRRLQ
UniProt Q5JRA6: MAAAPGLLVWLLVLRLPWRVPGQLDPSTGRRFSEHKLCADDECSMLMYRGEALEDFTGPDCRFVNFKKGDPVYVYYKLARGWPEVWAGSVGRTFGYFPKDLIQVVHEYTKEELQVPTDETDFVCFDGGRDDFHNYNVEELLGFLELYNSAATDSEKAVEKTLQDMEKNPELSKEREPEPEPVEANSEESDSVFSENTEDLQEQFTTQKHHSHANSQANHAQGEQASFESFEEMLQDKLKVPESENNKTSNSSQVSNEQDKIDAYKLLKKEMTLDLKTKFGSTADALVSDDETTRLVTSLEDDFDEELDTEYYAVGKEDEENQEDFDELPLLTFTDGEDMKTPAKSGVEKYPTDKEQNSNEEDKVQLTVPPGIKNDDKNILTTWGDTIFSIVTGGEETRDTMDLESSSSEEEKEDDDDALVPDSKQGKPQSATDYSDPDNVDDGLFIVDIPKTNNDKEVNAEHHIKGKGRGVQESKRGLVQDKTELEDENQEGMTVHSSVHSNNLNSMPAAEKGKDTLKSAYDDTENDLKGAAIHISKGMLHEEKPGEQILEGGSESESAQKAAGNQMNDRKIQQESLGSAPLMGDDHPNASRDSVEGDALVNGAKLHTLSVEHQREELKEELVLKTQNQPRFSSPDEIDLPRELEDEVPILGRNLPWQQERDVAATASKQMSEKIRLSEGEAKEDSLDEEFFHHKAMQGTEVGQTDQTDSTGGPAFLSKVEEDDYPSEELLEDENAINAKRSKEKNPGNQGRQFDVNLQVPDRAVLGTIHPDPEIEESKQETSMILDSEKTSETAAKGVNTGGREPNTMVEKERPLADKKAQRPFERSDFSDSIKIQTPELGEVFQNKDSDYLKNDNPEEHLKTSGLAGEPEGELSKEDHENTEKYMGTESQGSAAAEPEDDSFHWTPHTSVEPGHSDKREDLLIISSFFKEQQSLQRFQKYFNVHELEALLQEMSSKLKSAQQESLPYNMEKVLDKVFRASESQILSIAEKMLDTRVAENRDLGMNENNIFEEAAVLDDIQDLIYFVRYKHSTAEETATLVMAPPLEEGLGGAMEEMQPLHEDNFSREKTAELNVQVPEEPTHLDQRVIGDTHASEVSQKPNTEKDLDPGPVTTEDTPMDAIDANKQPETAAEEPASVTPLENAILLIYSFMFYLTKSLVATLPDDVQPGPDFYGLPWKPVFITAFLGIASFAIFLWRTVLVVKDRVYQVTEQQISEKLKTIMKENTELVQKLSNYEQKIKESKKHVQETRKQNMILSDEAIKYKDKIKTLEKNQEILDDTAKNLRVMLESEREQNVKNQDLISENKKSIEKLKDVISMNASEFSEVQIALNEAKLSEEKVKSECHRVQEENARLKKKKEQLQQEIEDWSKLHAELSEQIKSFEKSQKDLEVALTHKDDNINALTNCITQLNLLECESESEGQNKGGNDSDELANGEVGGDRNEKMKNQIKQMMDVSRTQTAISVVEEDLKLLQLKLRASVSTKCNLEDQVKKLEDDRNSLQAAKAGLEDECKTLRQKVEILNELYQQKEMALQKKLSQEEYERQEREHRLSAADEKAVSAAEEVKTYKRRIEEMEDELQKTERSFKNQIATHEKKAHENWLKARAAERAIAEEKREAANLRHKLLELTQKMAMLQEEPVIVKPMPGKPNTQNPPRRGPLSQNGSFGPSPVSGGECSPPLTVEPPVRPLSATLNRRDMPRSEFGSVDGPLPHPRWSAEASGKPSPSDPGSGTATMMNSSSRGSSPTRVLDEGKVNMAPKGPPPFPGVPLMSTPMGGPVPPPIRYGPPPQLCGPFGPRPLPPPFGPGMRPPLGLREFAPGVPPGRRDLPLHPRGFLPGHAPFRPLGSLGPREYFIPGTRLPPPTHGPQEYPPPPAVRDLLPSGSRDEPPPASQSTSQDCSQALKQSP
UniProt P61244, whole entry, looked up: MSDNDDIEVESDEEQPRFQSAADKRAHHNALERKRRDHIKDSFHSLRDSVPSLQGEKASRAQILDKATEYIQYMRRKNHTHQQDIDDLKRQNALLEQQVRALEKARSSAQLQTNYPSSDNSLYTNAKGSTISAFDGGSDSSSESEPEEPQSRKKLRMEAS
UniProt O75448: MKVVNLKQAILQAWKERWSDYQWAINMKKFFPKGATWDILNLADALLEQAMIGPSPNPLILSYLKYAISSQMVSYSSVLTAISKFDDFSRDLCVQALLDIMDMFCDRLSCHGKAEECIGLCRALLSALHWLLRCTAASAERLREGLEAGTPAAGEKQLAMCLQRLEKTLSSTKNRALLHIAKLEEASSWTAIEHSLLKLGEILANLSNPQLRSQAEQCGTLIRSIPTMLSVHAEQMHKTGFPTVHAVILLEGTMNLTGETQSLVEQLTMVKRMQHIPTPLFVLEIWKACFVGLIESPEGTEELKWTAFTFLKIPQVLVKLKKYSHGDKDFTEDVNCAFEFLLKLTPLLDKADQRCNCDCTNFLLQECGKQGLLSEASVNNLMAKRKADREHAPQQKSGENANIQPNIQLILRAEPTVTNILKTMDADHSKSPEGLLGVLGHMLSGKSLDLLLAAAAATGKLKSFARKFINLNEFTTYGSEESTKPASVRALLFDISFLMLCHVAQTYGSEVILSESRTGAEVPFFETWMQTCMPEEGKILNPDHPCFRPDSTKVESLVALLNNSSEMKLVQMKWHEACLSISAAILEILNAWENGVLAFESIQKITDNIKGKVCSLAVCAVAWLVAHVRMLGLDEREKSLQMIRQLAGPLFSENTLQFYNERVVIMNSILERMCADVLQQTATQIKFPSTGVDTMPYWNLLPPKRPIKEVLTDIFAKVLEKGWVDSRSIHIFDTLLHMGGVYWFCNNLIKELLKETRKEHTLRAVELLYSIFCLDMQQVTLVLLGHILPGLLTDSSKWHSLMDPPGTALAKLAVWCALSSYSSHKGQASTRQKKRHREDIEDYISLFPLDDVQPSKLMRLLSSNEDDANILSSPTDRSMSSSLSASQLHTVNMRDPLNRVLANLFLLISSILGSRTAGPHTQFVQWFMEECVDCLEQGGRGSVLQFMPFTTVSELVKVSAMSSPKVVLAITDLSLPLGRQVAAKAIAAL
UniProt Q5SR56: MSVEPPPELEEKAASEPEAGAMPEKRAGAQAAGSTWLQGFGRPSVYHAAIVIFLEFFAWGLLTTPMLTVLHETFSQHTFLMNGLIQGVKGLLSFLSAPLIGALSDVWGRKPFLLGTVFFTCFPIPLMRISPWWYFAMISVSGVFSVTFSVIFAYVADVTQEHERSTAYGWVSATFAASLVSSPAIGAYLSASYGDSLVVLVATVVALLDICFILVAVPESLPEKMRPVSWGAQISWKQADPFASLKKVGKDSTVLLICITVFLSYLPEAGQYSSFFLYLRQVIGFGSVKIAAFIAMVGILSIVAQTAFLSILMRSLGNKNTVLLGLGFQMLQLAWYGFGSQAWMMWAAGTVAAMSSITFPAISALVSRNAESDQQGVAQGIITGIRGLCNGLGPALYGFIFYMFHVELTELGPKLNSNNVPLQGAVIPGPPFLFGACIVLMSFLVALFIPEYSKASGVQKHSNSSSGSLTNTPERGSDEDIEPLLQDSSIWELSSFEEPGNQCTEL
UniProt Q9H8H3: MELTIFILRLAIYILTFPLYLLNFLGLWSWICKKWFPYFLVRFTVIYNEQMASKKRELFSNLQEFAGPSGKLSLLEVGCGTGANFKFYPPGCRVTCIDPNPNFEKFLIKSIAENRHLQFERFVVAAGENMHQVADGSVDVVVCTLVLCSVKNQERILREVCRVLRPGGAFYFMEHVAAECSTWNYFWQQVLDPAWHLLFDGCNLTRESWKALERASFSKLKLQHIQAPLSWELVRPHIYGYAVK
UniProt Q96HR3: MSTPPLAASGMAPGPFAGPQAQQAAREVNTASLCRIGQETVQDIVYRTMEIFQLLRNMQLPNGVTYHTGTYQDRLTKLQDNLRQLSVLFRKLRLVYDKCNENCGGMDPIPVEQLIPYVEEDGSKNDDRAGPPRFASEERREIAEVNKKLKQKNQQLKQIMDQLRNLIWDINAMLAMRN
UniProt P50579: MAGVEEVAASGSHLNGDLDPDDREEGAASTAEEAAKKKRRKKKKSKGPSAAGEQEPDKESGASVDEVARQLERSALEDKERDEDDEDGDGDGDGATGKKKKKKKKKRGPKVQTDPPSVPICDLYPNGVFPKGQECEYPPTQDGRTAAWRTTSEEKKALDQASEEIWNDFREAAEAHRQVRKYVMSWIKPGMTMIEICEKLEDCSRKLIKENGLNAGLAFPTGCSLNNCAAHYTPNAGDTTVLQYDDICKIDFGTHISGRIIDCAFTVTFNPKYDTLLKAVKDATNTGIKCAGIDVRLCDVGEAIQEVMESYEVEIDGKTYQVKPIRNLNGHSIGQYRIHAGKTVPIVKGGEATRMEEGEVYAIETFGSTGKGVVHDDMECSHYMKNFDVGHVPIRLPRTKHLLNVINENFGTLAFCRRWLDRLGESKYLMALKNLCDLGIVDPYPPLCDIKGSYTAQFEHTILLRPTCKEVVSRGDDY
UniProt P33992: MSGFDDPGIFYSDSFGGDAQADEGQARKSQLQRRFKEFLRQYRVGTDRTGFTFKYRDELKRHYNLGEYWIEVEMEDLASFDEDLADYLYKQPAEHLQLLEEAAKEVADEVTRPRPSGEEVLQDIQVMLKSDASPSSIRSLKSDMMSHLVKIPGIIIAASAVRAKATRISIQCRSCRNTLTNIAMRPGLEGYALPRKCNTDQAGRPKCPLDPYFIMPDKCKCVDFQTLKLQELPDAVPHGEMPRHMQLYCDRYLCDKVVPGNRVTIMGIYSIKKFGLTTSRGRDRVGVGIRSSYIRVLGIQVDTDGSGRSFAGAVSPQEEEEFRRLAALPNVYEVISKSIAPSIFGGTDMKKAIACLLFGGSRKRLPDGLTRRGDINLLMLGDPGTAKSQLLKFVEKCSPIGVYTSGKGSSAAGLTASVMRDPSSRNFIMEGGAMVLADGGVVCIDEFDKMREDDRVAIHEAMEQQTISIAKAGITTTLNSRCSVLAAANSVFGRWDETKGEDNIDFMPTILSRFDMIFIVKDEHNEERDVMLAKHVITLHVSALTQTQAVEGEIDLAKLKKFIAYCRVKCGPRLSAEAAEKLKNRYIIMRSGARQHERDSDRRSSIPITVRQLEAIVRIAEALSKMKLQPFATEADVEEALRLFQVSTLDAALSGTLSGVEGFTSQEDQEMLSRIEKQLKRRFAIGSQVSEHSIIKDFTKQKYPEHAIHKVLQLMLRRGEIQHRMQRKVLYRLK
UniProt Q9BTT4: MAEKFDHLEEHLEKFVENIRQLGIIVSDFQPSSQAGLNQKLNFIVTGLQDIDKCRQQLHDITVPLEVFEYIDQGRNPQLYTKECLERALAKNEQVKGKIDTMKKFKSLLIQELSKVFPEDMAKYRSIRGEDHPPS
UniProt Q96RQ3: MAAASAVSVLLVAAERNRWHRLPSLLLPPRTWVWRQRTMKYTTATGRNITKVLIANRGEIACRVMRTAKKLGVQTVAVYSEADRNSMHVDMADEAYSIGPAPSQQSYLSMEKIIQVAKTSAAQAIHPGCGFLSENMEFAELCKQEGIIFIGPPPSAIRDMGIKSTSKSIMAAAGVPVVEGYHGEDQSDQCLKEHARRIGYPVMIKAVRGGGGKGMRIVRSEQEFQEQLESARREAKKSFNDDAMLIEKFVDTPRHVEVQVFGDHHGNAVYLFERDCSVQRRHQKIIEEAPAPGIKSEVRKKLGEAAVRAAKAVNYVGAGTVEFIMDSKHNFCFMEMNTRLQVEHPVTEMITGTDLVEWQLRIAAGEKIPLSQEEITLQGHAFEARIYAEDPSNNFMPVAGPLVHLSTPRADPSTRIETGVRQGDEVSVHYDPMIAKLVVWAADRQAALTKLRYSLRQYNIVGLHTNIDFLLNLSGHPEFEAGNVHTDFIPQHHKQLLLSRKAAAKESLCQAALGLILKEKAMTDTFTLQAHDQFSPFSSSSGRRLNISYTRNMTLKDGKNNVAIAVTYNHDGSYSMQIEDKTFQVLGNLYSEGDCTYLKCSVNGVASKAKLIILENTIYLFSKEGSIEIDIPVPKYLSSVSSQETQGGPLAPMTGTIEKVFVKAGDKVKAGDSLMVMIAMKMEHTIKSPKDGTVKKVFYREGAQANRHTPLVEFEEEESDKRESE

Legend:
Assay in all cases: log2 fold change, soluble protein after heating vs DMSO (PISA); higher = thermal stabilisation; K562 cells, 10 uM, 30 min; active = over 0.2 and 3.5 SD of the protein, either way, in both replicates (recomputed)
[1] = compound: CC[C@@H]1C(=O)N(C)c2cnc(Nc3ccc(C(=O)NC4CCN(C)CC4)cc3OC)nc2N1C1CCCC1
Summary of the method: (§1)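 K562 cells at 2×10^6 cells/mL were treated for 30 min with 10 μM compound, and aliquots were heated for 3 min over 48°C-58°C before pooling. Extraction used PBS with 0.5% NP-40 at 4°C, and soluble protein was the supernatant after 21,000xg for 90 min, measured by TMTpro 16plex LC-MS/MS with channel sums equalised. Thermal stability values, relative to control samples and from duplicates, are log2 fold changes.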

volasertib = compound: CC[C@@H]1C(=O)N(C)c2cnc(Nc3ccc(C(=O)N[C@H]4CC[C@H](N5CCN(CC6CC6)CC5)CC4)cc3OC)nc2N1C(C)C [volasertib]
Summary of the method: as §1

[2] = compound: CC[C@H](C)N1C=C(C2=C(C=C(C=C21)C3=CN=C(C=C3)N4CCNCC4)C(=O)NCC5=C(C=C(NC5=O)C)C)C
Summary of the method: as §1

epoxomicin = compound: CC[C@H](C)[C@@H](C(=O)N[C@@H]([C@@H](C)O)C(=O)N[C@@H](CC(C)C)C(=O)[C@]1(CO1)C)NC(=O)[C@H]([C@@H](C)CC)N(C)C(=O)C [epoxomicin]
Summary of the method: as §1

[3] = compound: CCn1c(C(=O)N(C2CC2)C2CC2)cc2c3c(ncn3C)c(Nc3cc(C)n(C)n3)nc21
Summary of the method: as §1

[4] = compound: CCn1cc(-c2ccnc3[nH]c(-c4cccc(CN(C)C)c4)cc23)c(-c2ccc(NC(=O)N(C)C)cc2)n1
Summary of the method: as §1

[5] = compound: CN(C)CC(=O)Nc1ccc2[nH]c(=O)c3ccccc3c2c1
Summary of the method: as §1

rosiglitazone = compound: CN(CCOC1=CC=C(C=C1)C[C@H]2C(=O)NC(=O)S2)C3=CC=CC=N3 (racemic) [rosiglitazone]
Summary of the method: as §1

[6] = compound: CN1C2=C(C3=C1C(=O)N(N=C3)CC4=CC(=CC=C4)N)SC(=C2)S(=O)C
Summary of the method: as §1

[7] = compound: CN1CCC(CNc2ccc3ncc(-c4cccc(OC(F)(F)F)c4)n3n2)CC1
Summary of the method: as §1

Measured: log2 fold change

MGAT2 (UniProt Q10469)
inactive: [1] -0.089 | volasertib -0.104 | [2] 0.045 | epoxomicin 0.034 | [3] 0.024 | [4] -0.009 | [5] 0.029 | rosiglitazone 0.025 | [6] -0.059 | [7] 0.017

MCM4 (UniProt P33991)
inactive: [1] -0.02 | volasertib -0.079 | [2] 0.034 | epoxomicin 0.025 | [3] 0.009 | [4] -0.062 | [5] 0.032 | rosiglitazone 0.046 | [6] -0.074 | [7] -0.128

MARS2 (UniProt Q96GW9)
inactive: [1] 0.039 | volasertib 0.061 | [2] -0.045 | epoxomicin 0.045 | [3] -0.011 | [4] -0.041 | [5] -0.021 | rosiglitazone 0.013 | [6] -0.054 | [7] 0.082

MIA3 (UniProt Q5JRA6)
inactive: [1] -0.015 | volasertib -0.086 | [2] 0.017 | epoxomicin 0.005 | [3] -0.016 | [4] 0.07 | [5] 0.003 | rosiglitazone -0.039 | [6] 0.043 | [7] 0.019

MCAM (UniProt P43121)
inactive: [1] 0.117 | volasertib 0.072 | [2] -0.044 | epoxomicin -0.011 | [3] 0.028 | [4] -0.069 | [5] -0.029 | rosiglitazone -0.003 | [6] -0.027 | [7] 0.19

MAX (UniProt P61244)
inactive: [1] 0.095 | volasertib 0.132 | [2] 0.015 | epoxomicin 0.021 | [3] 0.061 | [4] -0.019 | [5] -0.039 | rosiglitazone 0.008 | [6] -0.015 | [7] 0.029

MED24 (UniProt O75448)
inactive: [1] 0.036 | volasertib 0.368 | [2] 0.062 | epoxomicin -0.126 | [3] -0.006 | [4] -0.142 | [5] 0.017 | rosiglitazone 0.028 | [6] 0.075 | [7] -0.146

MFSD14B (UniProt Q5SR56)
inactive: [1] -0.063 | volasertib -0.282 | [2] 0.041 | epoxomicin -0.017 | [3] 0.016 | [5] 0.099 | [6] -0.036

METTL7A (UniProt Q9H8H3)
inactive: [1] 0.013 | volasertib 0.04 | [2] -0.012 | epoxomicin -0.006 | [3] 0 | [4] -0.019 | [5] 0.046 | rosiglitazone 0.017 | [6] -0.038 | [7] -0.033

MDP1 (UniProt Q86V88)
inactive: [1] 0.045 | volasertib 0.029 | [2] -0.065 | epoxomicin -0.03 | [3] 0.052 | [4] -0.034 | [5] -0.113 | rosiglitazone -0.061 | [6] 0.016 | [7] 0.127

ME1 (UniProt P48163)
inactive: [1] 0.083 | volasertib 0.032 | [2] -0.03 | epoxomicin 0.016 | [3] 0.019 | [4] -0.009 | [5] 0.009 | rosiglitazone 0.002 | [6] -0.063 | [7] -0.054

MAST4 (UniProt O15021)
inactive: [1] -0.059 | volasertib -0.22 | [2] 0.073 | epoxomicin 0.048 | [4] -0.102 | [5] -0.009 | [6] -0.115 | [7] -0.384

MED30 (UniProt Q96HR3)
inactive: [1] 0.042 | volasertib -0.013 | [2] -0.019 | epoxomicin -0.109 | [3] 0.108 | [5] -0.022 | rosiglitazone 0.039 | [6] 0.033

MBLAC2 (UniProt Q68D91)
inactive: [1] 0.05 | volasertib 0.034 | [2] -0.064 | epoxomicin -0.039 | [3] 0.021 | [4] -0.043 | [5] -0.034 | rosiglitazone -0.022 | [6] -0.027 | [7] 0.115

MCOLN1 (UniProt Q9GZU1)
inactive: [1] -0.001 | volasertib -0.147 | [2] -0.061 | epoxomicin 0.012 | [3] -0.004 | [4] 0.009 | rosiglitazone 0.05 | [6] -0.107 | [7] -0.057

MFSD4B (UniProt Q5TF39)
inactive: [1] 0.094 | volasertib -0.075 | [2] -0.085 | epoxomicin -0.073 | [4] -0.047 | [5] -0.064 | rosiglitazone -0.027 | [6] -0.016 | [7] -0.099

MAZ isoform 2 (UniProt P56270)
inactive: [1] 0.135 | volasertib 0.159 | [2] 0.045 | epoxomicin -0.159 | [3] -0.032 | [4] 0.006 | [5] -0.101 | rosiglitazone -0.084 | [6] 0.118 | [7] 0.207

METTL3 (UniProt Q86U44)
inactive: [1] 0.014 | volasertib -0.031 | [2] 0.049 | epoxomicin 0.045 | [3] -0.002 | [4] -0.088 | [5] 0.005 | rosiglitazone 0.008 | [6] -0.037 | [7] -0.013

METAP2 (UniProt P50579)
inactive: [1] 0.016 | volasertib 0.071 | [2] 0.007 | epoxomicin 0.031 | [3] -0.079 | [4] -0.078 | [5] -0.031 | rosiglitazone -0.014 | [6] 0.006 | [7] 0.204

MEAF6 isoform 3 (UniProt Q9HAF1)
inactive: [1] -0.078 | volasertib 0.075 | [2] 0.032 | epoxomicin -0.071 | [3] 0.006 | [4] 0.022 | [5] -0.065 | rosiglitazone -0.084 | [6] 0.051 | [7] -0.006

MCM7 (UniProt P33993)
inactive: [1] -0.032 | volasertib -0.035 | [2] 0.049 | epoxomicin 0.02 | [3] 0.018 | [4] -0.024 | [5] 0.022 | rosiglitazone 0.012 | [6] -0.09 | [7] -0.112

METTL16 (UniProt Q86W50)
inactive: [1] -0.034 | volasertib -0.14 | [2] 0.02 | epoxomicin 0.032 | [3] -0.005 | [4] 0.021 | [5] 0.016 | rosiglitazone -0.003 | [6] -0.046 | [7] -0.081

MCRIP1 (UniProt I3L4Q0)
inactive: [1] 0.012 | volasertib 0.024 | [2] -0.066 | epoxomicin -0.04 | [3] 0.011 | [4] 0.002 | [5] -0.068 | rosiglitazone -0.019 | [6] 0.02 | [7] -0.067

MCM5 (UniProt P33992)
inactive: [1] -0.027 | volasertib -0.055 | [2] 0.043 | epoxomicin 0.033 | [3] -0.003 | [4] -0.019 | [5] 0.025 | rosiglitazone 0.009 | [6] -0.038 | [7] 0

MBOAT7 (UniProt Q96N66)
inactive: [1] -0.03 | volasertib 0 | [2] -0.04 | epoxomicin 0.033 | [3] 0.018 | [4] 0.004 | [5] -0.024 | rosiglitazone 0.011 | [6] -0.05 | [7] 0.115

MED10 (UniProt Q9BTT4)
inactive: [1] 0.091 | volasertib 0.074 | [2] 0.078 | epoxomicin 0.163 | [3] 0.011 | [4] 0.072 | [5] -0.065 | [6] -0.02 | [7] 0.256

MCCC1 (UniProt Q96RQ3)
inactive: [1] -0.014 | volasertib 0.025 | [2] 0.044 | epoxomicin 0.032 | [3] -0.038 | [4] -0.048 | [5] 0.034 | rosiglitazone 0.09 | [6] -0.063 | [7] -0.048

MCM2 (UniProt P49736)
inactive: [1] -0.001 | volasertib -0.089 | [2] 0.039 | epoxomicin 0.021 | [3] -0.004 | [4] -0.06 | [5] 0.013 | rosiglitazone 0.032 | [6] -0.085 | [7] -0.097

METTL21A (UniProt Q8WXB1)
inactive: [1] 0.038 | volasertib -0.007 | [2] -0.049 | epoxomicin -0.014 | [3] -0.189 | [4] -0.024 | [5] 0.019 | rosiglitazone 0.008 | [6] -0.142 | [7] 0.056

MBOAT1 (UniProt Q6ZNC8)
inactive: [1] -0.07 | volasertib -0.099 | [2] 0.004 | epoxomicin 0.049 | [3] -0.025 | [5] 0.138 | rosiglitazone 0.02 | [6] -0.062

MFAP1 (UniProt P55081)
inactive: [1] -0.03 | volasertib -0.022 | [2] -0.011 | epoxomicin 0.035 | [3] 0.017 | [4] 0.007 | [5] 0.01 | rosiglitazone -0.027 | [6] 0.024 | [7] -0.016

Two consecutive records out of the list so far:
MCCC1 (UniProt Q96RQ3)
inactive: [1] -0.014 | volasertib 0.025 | [2] 0.044 | epoxomicin 0.032 | [3] -0.038 | [4] -0.048 | [5] 0.034 | rosiglitazone 0.09 | [6] -0.063 | [7] -0.048

MCM2 (UniProt P49736)
inactive: [1] -0.001 | volasertib -0.089 | [2] 0.039 | epoxomicin 0.021 | [3] -0.004 | [4] -0.06 | [5] 0.013 | rosiglitazone 0.032 | [6] -0.085 | [7] -0.097
